Values after ≈ are worked out from the molar mass of the structure shown. For at least one compound, name, drawing or mass did not settle the structure.
Tested on: Enterococcus faecalis resistant clinical isolates
Test: MIC/IC90, resistant clinical isolates of Enterococcus faecalis
Assay type: cell-based
Settings: Enterococcus faecalis 3, VanA
Method: Cell growth was tested using the Minimal Inhibitory Concentration (MIC) susceptibility tests by use of the microdilution broth method in accordance to the NCCLS Guidelines (NCCLS Guidelines, Methods for Dilution Antimicrobial Susceptibility Tests for Bacteria That Grow Aerobically; Approved Standard, Sixth Edition, Volume 23; Number 2). The minimum inhibitory concentration (MIC), is defined ad the lowest concentration of drug which inhibits growth of the test organism, in the sense that no visible growth is detected (total inhibition of growth). In example 2 MIC of the compounds used on fungal microorganisms was determined from the IC90 measurements according to NCCLS Guidelines.
A log phase culture of bacteria was diluted with fresh pre-warmed Mueller-Hinton medium and adjusted to a defined OD at 600 nm in order to give a final concentration of 1×10^4-5 bacteria/ml medium. The bacterial culture was transferred to microtiter-plates and culture was added to each well. Drug was added to the bacterial culture in the wells as two-fold dilution series of drug in order to give final concentrations ranging from 0.03 to 128 μg/ml. Trays were incubated at 37° C. by shaking in a robot analyzer, PowerWavex, software KC^4′ Kebo.Lab, Copenhagen, for 16 h and optical densities were measured at 600 nm during the incubation time in order to record growth curves. […]

Clc1ccc2c(c1)/C(=C/CCN1CCNCC1)c1ccccc1S2 [N-dealkyl-trans-clopenthixol, trans-1-(3-(2-chloro-thioxanthen-9-ylidene)propyl)piperazine]
IC90: 0.06 µg/mL (≈ 0.168 µM)

— US20100113430A1, “THIOXANTHENE DERIVATES USEFUL TO TREAT INFECTIOUS DISEASES” (BKG PHARMA APS, priority 2007, published 2010)
